Source: PubChem BioAssay AID2685 (National Center for Advancing Translational Sciences (NCATS), 2010)
This is one part of the list. The main result of the screen is listed elsewhere. These columns were measured beside it and carry no call. Compounds called inactive in the main read-out are mostly missing here. Potencies come from curve fits of mixed quality, noted in brackets.

Test: qHTS Assay for Lipid Storage Modulators in Drosophila S3 Cells;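 for cell number change: cells counted by Cell Tracker Red CMTPX staining in the red channel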
Conditions: BODIPY lipid droplet fluorescence, 18-24 h; for cell number change: measured here: cell count max response, cells fed with added oleic acid
Method in brief: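 Drosophila S3 cells loaded with oleic acid (400 uM, as added) and compounds at several concentrations; lipid droplets imaged by 488-nm laser-scanning cytometry, 500–530 nm intensity and object ratio to cell channel. Percent activity normalized to 20 uM Triacsin C.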

[1] = measured here: lipid fluorescence (Fed channel) AC50, cells fed with added oleic acid
[2] = measured here: cell number channel AC50, cells fed with added oleic acid

| Compound | cell number change | AC50 [1] | AC50 [2] |
| --- | --- | --- | --- |
| CCOC(=O)CN1CC23C=CC(O2)C(C(=O)Nc2ccc(C(C)=O)cc2)C3C1=O (stereo not drawn) | -3.19% | 8.2 µM [falling, partial curve] | – |
| O=C(CSC1=NC2(CCCCC2)N=C1c1ccccc1)Nc1ccc2c(c1)OCCO2 | 0.215% | 20.6 µM [falling, single point] | – |
| CC(=O)N1CCC(C(=O)Nc2ccc(S(=O)(=O)N3CCCCC3)cc2)CC1 | -10.6% | 7.31 µM [falling, partial curve, poor fit] | – |
| Cc1cc2cc(CN(Cc3nnnn3C3CCCCC3)CC3CCCO3)c(=O)[nH]c2cc1C (stereo not drawn) | -32.8% | – | 0.116 µM [falling, full curve, poor fit] |
| C(=N\n1cnnc1)/c1cn(Cc2ccccc2)c2ccccc12 | -20.4% | 5.17 µM [falling, single point] | 0.092 µM [falling, full curve, poor fit] |
| Nc1nc(NCC2CCCO2)nc(Nc2ccccc2F)c1[N+](=O)[O-] (stereo not drawn) | 46.9% | 0.651 µM [rising, full curve] | 0.82 µM [rising, full curve, poor fit] |
| Cn1nnnc1Sc1ncnc2scc(-c3ccc(F)cc3)c12 | – | 4.61 µM [rising, full curve, poor fit] | – |
| Cc1ccc(C(C)C)cc1OCC(=O)N/N=C/c1ccc2c(c1)OCCO2 | 47.8% | 7.31 µM [rising, partial curve] | 9.2 µM [rising, partial curve] |
| Cc1ccc(N(C)C(=O)c2cc(S(=O)(=O)N3CCCC3)cn2C)cc1 | -23.1% | 1.46 µM [falling, partial curve] | – |
| O=c1c2ccccc2nc(COc2ccccc2)n1/N=C/c1ccc(O)c(O)c1 | -24.2% | – | – |
| O=C(Nc1cccc2ccccc12)NC1CCS(=O)(=O)C1 (stereo not drawn) | – | 0.00517 µM [rising, full curve, poor fit] | – |
| CN(C)c1ccc(C(c2nnnn2C(C)(C)C)N2CCN(C(=O)c3ccco3)CC2)cc1 (stereo not drawn) | 4.11% | – | – |
| COc1ccc(C2=NOC(C(=O)Nc3ccc(C(C)=O)cc3)C2)cc1OC (stereo not drawn) | 7.76% | – | – |
| COc1cccc(NC(=S)NC(=O)Cc2ccc(Cl)cc2)c1 | -26.5% | 5.17 µM [rising, partial curve] | – |
| O=C(c1ccco1)N1CCN(C(=O)c2ccc(-c3ccc(Cl)cc3)o2)CC1 | -41.1% | 0.366 µM [falling, single point] | 23.1 µM [falling, single point] |
| O=C(O)/C=C/c1ccc([N+](=O)[O-])o1 | -15% | 5.8 µM [falling, full curve] | 0.731 µM [falling, full curve] |
| CCOc1ncccc1C(=O)OCC(=O)c1cc(OC)ccc1OC | 117% | – | – |
| Nc1nc(-c2ccccc2)c(N=Nc2cccc3ccccc23)s1 | -91.8% | 0.00461 µM [falling, full curve, poor fit] | 20.6 µM [falling, partial curve] |
| COc1ccc2c(c1OC)C(=O)O[C@@H]2[C@H]1c2c(cc3c(c2OC)OCO3)CCN1C | -5.13% | 1.46 µM [rising, full curve] | – |
| CN(C)CC(C(=O)c1ccccc1)c1ccccc1 (stereo not drawn) | -65.6% | 6.51 µM [falling, single point] | 16.4 µM [falling, partial curve] |

| Compound | cell number change | AC50 [1] | AC50 [2] |
| --- | --- | --- | --- |
| O=c1sc2ccccc2n1Cc1ccccc1 | 22.7% | – | 4.11 µM [rising, full curve, poor fit] |
| COc1cc(/C=C/C(=O)c2cccc([N+](=O)[O-])c2)cc(OC)c1OC | -57.8% | 16.4 µM [falling, single point] | 2.06 µM [falling, partial curve] |
| CC(C)[C@@H]1COC(c2cccc(C3=N[C@H](C(C)C)CO3)c2)=N1 | -1.94% | 29.1 µM [rising, single point] | – |
| O=S(=O)(Nc1ccccc1OC(F)F)c1ccc(S(=O)(=O)N2CCCC2)cc1 | 3.02% | 0.00731 µM [rising, full curve, poor fit] | – |
| CCOC(=O)c1c(NC(=O)COc2ccccc2C#N)sc2c1CC(C)(C)NC2(C)C | -38.6% | – | 29.1 µM [falling, single point] |
| CSC(=NS(=O)(=O)c1ccc(C)cc1)SC | 7.65% | 14.6 µM [rising, partial curve] | – |
| CC(C)COP(=O)(c1ccc(N(C)C)cc1)C(O)c1ccc(Br)cc1 (stereo not drawn) | -38.8% | 9.2 µM [falling, partial curve] | 14.6 µM [falling, partial curve] |
| CSc1nc2sccc2c(=O)[nH]1 | 25.9% | – | 3.66 µM [rising, full curve, poor fit] |
| Cc1c(NS(=O)(=O)c2cc(C(=O)NCC3CCCO3)cc(Cl)c2Cl)c(=O)n(-c2ccccc2)n1C (stereo not drawn) | – | 0.651 µM [falling, single point] | 0.13 µM [falling, full curve, poor fit] |
| CC(C)NC(=O)c1ccc2c(c1)N(CC(=O)Nc1ccccc1F)C(=O)C(C)(C)O2 | -8.92% | – | – |
| O=C(CSc1ccccn1)Nc1cccc([N+](=O)[O-])c1 | 50.5% | 20.6 µM [rising, partial curve] | 20.6 µM [rising, single point] |
| COc1cccc(CNC(=O)c2nnn(CC(=O)Nc3c(C)cccc3C)c2N)c1 | 12.2% | 20.6 µM [falling, single point] | – |
| COc1ccc(C(C#N)N2N=C(C)CC2(C)C)cc1 (stereo not drawn) | 19.7% | 0.291 µM [falling, full curve, poor fit] | – |
| CC1CC(C)(C)NC(=S)N1CCCC(=O)Nc1ccc(Br)cc1 (stereo not drawn) | 34% | – | 2.31 µM [rising, partial curve, poor fit] |
| Cc1ccccc1-n1nc2c(c1NC(=O)c1c(-c3ccccc3Cl)noc1C)CSC2 | 4.32% | 29.1 µM [rising, single point] | – |
| COc1cc(CNCCO)cc(Cl)c1OCc1ccc(Cl)cc1Cl | -29.8% | 3.26 µM [falling, single point] | 2.06 µM [falling, partial curve, poor fit] |
| CN(C(=O)c1cc(-n2cnnc2)ccc1Cl)c1ccccc1 | 5.14% | 23.1 µM [rising, single point] | – |
| Nn1c(SCC(=O)Nc2ccc(OC(F)F)cc2)nnc(Cc2ccccc2)c1=O | -75% | – | 29.1 µM [falling, single point] |
| CCn1c(CSc2nc3ccccc3s2)nnc1SCC(=O)c1ccc(Cl)cc1 | – | 5.17 µM [rising, single point] | – |
| COc1ccc(-c2cc(-c3ccccc3)n3ncnc3n2)cc1 | 36.2% | – | 0.92 µM [rising, partial curve] |

An excerpt from above in order of count of non-hydrogen atoms, falling:

| Compound | cell number change | AC50 [1] | AC50 [2] |
| --- | --- | --- | --- |
| Cc1c(NS(=O)(=O)c2cc(C(=O)NCC3CCCO3)cc(Cl)c2Cl)c(=O)n(-c2ccccc2)n1C (stereo not drawn) | – | 0.651 µM [falling, single point] | 0.13 µM [falling, full curve, poor fit] |
| Cc1ccccc1-n1nc2c(c1NC(=O)c1c(-c3ccccc3Cl)noc1C)CSC2 | 4.32% | 29.1 µM [rising, single point] | – |
| CC(C)NC(=O)c1ccc2c(c1)N(CC(=O)Nc1ccccc1F)C(=O)C(C)(C)O2 | -8.92% | – | – |
| CCn1c(CSc2nc3ccccc3s2)nnc1SCC(=O)c1ccc(Cl)cc1 | – | 5.17 µM [rising, single point] | – |
| O=S(=O)(Nc1ccccc1OC(F)F)c1ccc(S(=O)(=O)N2CCCC2)cc1 | 3.02% | 0.00731 µM [rising, full curve, poor fit] | – |
| CC(C)COP(=O)(c1ccc(N(C)C)cc1)C(O)c1ccc(Br)cc1 (stereo not drawn) | -38.8% | 9.2 µM [falling, partial curve] | 14.6 µM [falling, partial curve] |
| CN(C(=O)c1cc(-n2cnnc2)ccc1Cl)c1ccccc1 | 5.14% | 23.1 µM [rising, single point] | – |
| O=C(CSc1ccccn1)Nc1cccc([N+](=O)[O-])c1 | 50.5% | 20.6 µM [rising, partial curve] | 20.6 µM [rising, single point] |
| COc1ccc(C(C#N)N2N=C(C)CC2(C)C)cc1 (stereo not drawn) | 19.7% | 0.291 µM [falling, full curve, poor fit] | – |
| O=c1sc2ccccc2n1Cc1ccccc1 | 22.7% | – | 4.11 µM [rising, full curve, poor fit] |
| CSC(=NS(=O)(=O)c1ccc(C)cc1)SC | 7.65% | 14.6 µM [rising, partial curve] | – |
| CSc1nc2sccc2c(=O)[nH]1 | 25.9% | – | 3.66 µM [rising, full curve, poor fit] |

(listing goes on)

| Compound | cell number change | AC50 [1] | AC50 [2] |
| --- | --- | --- | --- |
| Cc1ccc(S(=O)(=O)N(C)CC(=O)NNC(=O)Cc2cccc(F)c2)cc1 | -5.76% | 16.4 µM [falling, single point] | – |
| CCN(CC)c1ccc(/C=C(\C#N)C(=O)NCc2ccco2)cc1 | -11.5% | 29.1 µM [falling, single point] | – |
| CCN(CC)c1ccc(C(=O)OCC(=O)Nc2cc(C)on2)cc1 | 18.2% | 1.46 µM [rising, full curve] | 0.58 µM [rising, full curve, poor fit] |
| CCCC(=O)Nc1cc(Cl)ccc1N1CCN(C(=O)CC)CC1 | 13.3% | 16.4 µM [rising, single point] | – |
| COc1cc(C2c3c([nH]c(=O)[nH]c3=O)Nc3ccc4ccccc4c32)ccc1O (stereo not drawn) | 5.83% | 0.092 µM [rising, full curve, poor fit] | – |
| Cc1ccc(-n2nc(C)c(NC(=O)CCl)c2C)cc1 | -20.2% | – | – |
| O=C(NCc1ccccc1)C(c1ccc(F)cc1)N(C(=O)c1csnn1)c1ccccc1 (stereo not drawn) | 16% | – | – |
| COc1cccc(N(CC(=O)NC2CCCC2)C(=O)CCCC(=O)Nc2ccccn2)c1 | 7.92% | 0.58 µM [rising, partial curve] | – |
| S=C(NCCc1ccccc1)Nc1cnc2ccccc2c1 | 23.6% | 2.91 µM [falling, single point] | – |
| COCC(C)n1c(SCC(=O)N2CCc3ccccc3C2)nc2ccccc2c1=O (stereo not drawn) | -3.91% | – | – |
| CSCCC(NS(=O)(=O)c1ccccc1F)C(=O)NC(C)c1ccccc1 (stereo not drawn) | -5.41% | – | 0.0517 µM [falling, partial curve, poor fit] |
| COC(=O)c1oc2c(c1C)C1(CCC2)SCCS1 | -16.1% | 29.1 µM [falling, single point] | – |
| CC(OC(=O)c1ccccc1CCc1ccccc1)C(N)=O (stereo not drawn) | 30.6% | 29.1 µM [rising, single point] | 0.731 µM [rising, full curve, poor fit] |
| COc1ccc(NC(=S)NC(=O)CC(C)C)c(OC)c1 | 13.7% | – | – |
| CCc1ccc(OCc2n[nH]c(=S)n2C(C)CCCC(C)C)cc1 (stereo not drawn) | -33.5% | – | 0.92 µM [falling, full curve, poor fit] |
| CC1(C)Cc2nc3sc4c(N(CCO)CCO)nnnc4c3cc2CO1 | 3.56% | 20.6 µM [falling, partial curve] | – |
| S=C(NCCc1ccc(Cl)cc1)Nc1ccc(Cl)cc1Cl | -36% | 20.6 µM [falling, partial curve] | 16.4 µM [falling, single point] |
| CC(C)(C)SCCNC(=O)CN1C(=O)c2ccccc2S1(=O)=O | -17.8% | 9.2 µM [falling, partial curve] | – |
